Assay results as given in article PMC10803754.
These are yes or no findings as the source states them, for the method shown. Binding seen in cells or lysates may run through a third protein. These calls come from enrichment with a bait or labelling near it, and not all partners need be listed. Where a sequence is shown, tags or fusion partners need not be part of it.

Protein sequences, listed by entry. Tags and fused reporters are not part of them.
UniProt Q8R0K9: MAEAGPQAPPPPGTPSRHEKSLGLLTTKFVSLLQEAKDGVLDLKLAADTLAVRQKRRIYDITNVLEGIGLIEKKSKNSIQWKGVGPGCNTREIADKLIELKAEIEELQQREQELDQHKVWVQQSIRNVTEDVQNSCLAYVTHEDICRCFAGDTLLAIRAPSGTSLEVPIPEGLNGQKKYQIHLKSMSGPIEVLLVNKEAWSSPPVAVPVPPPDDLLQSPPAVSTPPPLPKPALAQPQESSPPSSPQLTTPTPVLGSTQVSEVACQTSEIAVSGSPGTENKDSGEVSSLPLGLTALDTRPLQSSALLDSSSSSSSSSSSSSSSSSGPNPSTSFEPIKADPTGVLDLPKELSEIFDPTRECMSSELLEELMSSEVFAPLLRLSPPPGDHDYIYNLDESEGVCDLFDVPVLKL
UniProt Q61502: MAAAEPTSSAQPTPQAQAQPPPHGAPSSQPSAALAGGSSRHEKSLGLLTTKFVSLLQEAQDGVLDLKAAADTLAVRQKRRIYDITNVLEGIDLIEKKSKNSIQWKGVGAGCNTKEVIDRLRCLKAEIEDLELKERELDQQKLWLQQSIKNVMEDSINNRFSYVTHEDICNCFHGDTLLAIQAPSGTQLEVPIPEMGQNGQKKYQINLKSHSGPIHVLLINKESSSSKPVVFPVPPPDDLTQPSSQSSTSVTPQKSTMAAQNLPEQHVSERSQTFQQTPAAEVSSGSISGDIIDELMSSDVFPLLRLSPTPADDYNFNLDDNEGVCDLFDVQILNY

T1: Multicilin tagged at the N-terminus with 3xFLAG (mouse) (mouse) (UniProt Q3UZ45)
T1 sequence: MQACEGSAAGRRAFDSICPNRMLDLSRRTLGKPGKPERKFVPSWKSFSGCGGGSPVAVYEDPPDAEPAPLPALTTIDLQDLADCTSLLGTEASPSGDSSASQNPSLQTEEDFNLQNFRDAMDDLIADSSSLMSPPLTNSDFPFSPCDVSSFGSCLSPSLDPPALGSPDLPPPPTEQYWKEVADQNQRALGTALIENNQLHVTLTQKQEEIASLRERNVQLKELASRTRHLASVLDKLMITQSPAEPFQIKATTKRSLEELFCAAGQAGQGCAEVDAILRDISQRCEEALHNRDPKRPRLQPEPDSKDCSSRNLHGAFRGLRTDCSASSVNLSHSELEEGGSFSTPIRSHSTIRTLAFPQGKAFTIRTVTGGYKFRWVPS

B1: TFDP-1 (protein, UniProt Q08639 1-410)
chain: MAKDASLIEANGELKVFIDQNLSPGKGVVSLVAVHPSTVNTLGKQLLPKTFGQSNVNITQQVVIGTPQRPAASNTIVVGSPHTPNTHFVSQNQTSDSSPWSAGKRNRKGEKNGKGLRHFSMKVCEKVQRKGTTSYNEVADELVAEFSAADNHILPNESAYDQKNIRRRVYDALNVLMAMNIISKEKKEIKWIGLPTNSAQECQNLEVERQRRLERIKQKQSQLQELILQQIAFKNLVQRNRQAEQQARRPPPPNSVIHLPFIIVNTSRKTVIDCSISNDKFEYLFNFDNTFEIHDDIEVLKRMGMACGLESGNCSAEDLKVARSLVPKALEPYVTEMAQGSIGGVFVTTTGSTSNGTRLSASDLSNGADGMLATSSNGSQYSGSRVETPVSYVGEDDDDDDDFNENDEED
B2: Retinoblastoma-like protein 2 (RBL2), mouse (protein, UniProt Q64700 1-1135)
chain: MASGGNQSPPPPPAAAASSEEEEEDGDAADRAQPAGSPSHQIQQRFEELCSRLNMDEAARAEAWSSYRSMSESYTLEGNDLHWLACALYVACRKSVPTVSKGTAEGNYVSLTRILRCSEQSLIEFFNKMKKWEDMANLPPHFRERTERLERNFTVSAVIFKKYEPIFQDIFKYPQEEQPRQQRGRKQRRQPCTTSEIFHFCWVLFIYAKGNFPMISDDLVNSYHLLLCALDLVYGNALQCSNRKELVNPNFKGLSEDCHPKDSKASSDPPCVIEKLCSLHDGLVLEAKGIKEHFWKPYIRKLFEKKLLKGKEENLTGFLEPGNFGESFKAVNKAYEEYVLAAGNLDERVFLGEDAEEEVGTLSRCLSAASGTESAERTQMRDILQQHLDKSKALRVCTPLTGVRYVQENSPCVTPVSTAAHSLSRLHTMLSGLRNAPSEKLERILRSCSRDPTQAIADRLKEMYEIYSQHFQPDENFSNCAKEIANKHFRFAEMLYYKVLESVIEQEQKRLGDMDLSGVLEHDAFHRSLLACCLEVVAFSHKPPGNFPFIAEIFDVPHYHFYKVIEVFIRAEDGLCREVVKHLNQIEEQILDHLAWKTKSPLWDRIRDNENRVPTCEEVMPPQNLERTDEIYIAGSPLTPRRVGEVRADAGGLGRSITSPTTLYDRYSSPTVSTTRRRLFENDSPSEGSTSGRIPPQPLVNAVPVQNVPGETVSVTPVPGQTLVTMATATVTANNGQTVTIPVQGIANENGGITFFPVQVNVGGQAQAVAGSIQPLSAQALAGSLSSQQVTGTTLQVPGPVAIQQISPGGQQQNPGQPLTSSSIRPRKTSSLALFFRKVYYLAGVRLRDLCIKLDISDELRKKIWTCFEFSIIQCTELMMDRHLDQLLMCAIYVMAKVTKEDRSFQNIMRCYRTQPQARSQVYRSVLIKGKRRNSGSSESRSHQNSPTELNTDRASRDSSPVMRSNSTLPVPQPSSAPPTPTRLTGASSDVEEEERGDLIQFYNNIYRKQIQAFAMKYSQANAQTDTPPLSPYPFVRTGSPRRVQLSQSHPIYISPHNNEAMPSPREKIFYYFSNSPSKRLREINSMIRTGETPTKKRGILLDDGSESPAKRICPENHSALLRRLQDVANDRGSQ

Each molecule was assayed against T1, Multicilin tagged at the N-terminus with 3xFLAG (mouse) (mouse) (assay: affinity purification with mass spectrometry; FLAG M2 agarose precipitation of 3xFLAG-Multicilin from lysates of MEFs infected with FLAG-MCI or FLAG-MCI+E2f4VP16 adenovirus, two days after infection; lysis buffer 50 mM HEPES-KOH pH 7.5, 500NaCl, 5 mM EDTA, 2% Triton, DNase I; eluted with FLAG peptide; non-infected MEFs as negative control).

binding, binds:
E2F4 (endogenous, MEFs) (from UniProt Q8R0K9 1-410)
E2F5 (from UniProt Q61502 1-335)
B1
B2
